For 2 substances, binding results are on record in article doi:10.1101/2025.04.12.648529.

Protein sequences, listed by entry. Tags and fused reporters are not part of them.
UniProt Q1XH10, whole entry: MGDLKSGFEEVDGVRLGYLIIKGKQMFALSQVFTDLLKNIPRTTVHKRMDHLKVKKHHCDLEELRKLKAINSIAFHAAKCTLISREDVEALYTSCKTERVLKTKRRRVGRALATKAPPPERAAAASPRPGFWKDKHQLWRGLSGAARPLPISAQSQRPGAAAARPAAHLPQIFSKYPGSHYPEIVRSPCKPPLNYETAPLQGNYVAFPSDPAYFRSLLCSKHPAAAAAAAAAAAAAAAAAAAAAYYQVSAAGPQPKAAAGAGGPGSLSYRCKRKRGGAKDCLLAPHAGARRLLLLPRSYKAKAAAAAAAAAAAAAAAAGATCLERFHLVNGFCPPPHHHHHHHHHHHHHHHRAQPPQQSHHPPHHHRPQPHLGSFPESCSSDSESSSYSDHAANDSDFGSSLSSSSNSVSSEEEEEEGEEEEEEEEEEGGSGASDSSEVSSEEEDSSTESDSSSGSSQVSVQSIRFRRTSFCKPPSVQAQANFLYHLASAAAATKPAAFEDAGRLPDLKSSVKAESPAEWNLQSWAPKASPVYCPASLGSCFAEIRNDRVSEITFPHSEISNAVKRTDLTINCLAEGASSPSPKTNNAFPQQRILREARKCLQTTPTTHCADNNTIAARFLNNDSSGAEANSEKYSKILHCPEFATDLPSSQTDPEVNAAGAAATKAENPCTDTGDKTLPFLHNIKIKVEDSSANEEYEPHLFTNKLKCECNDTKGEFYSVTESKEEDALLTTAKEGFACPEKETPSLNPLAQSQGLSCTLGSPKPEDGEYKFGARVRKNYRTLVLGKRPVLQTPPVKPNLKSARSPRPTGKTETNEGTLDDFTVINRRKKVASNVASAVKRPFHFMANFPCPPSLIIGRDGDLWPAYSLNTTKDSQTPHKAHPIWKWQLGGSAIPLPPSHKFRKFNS

Results are given in words; binding and its absence hold for the method and conditions named. Binding seen in cells or lysates may run through a third protein. A yes stands for co-enrichment or nearness to the bait. Other partners may have been found.

For this assay, the target named is SKIDA1-3xFLAG (UniProt Q1XH10). The assay can be described thus: affinity purification with mass spectrometry.

For the substance EED (from UniProt O75530 1-441), the binding result is recorded as “binds”. In the case of MTF2 (from UniProt Q9Y483 1-593), the binding entry is reported as “binds”.
